Reference: article PMC12687333
No constants are given. Whether binding was seen depends on the method and setting. Binding seen in cells or lysates may run through a third protein. Some results given as binding are weak or reduced against the parent protein; the word gives no strength.

Amino acid sequences for entries named in this document (tags omitted).
UniProt Q61412: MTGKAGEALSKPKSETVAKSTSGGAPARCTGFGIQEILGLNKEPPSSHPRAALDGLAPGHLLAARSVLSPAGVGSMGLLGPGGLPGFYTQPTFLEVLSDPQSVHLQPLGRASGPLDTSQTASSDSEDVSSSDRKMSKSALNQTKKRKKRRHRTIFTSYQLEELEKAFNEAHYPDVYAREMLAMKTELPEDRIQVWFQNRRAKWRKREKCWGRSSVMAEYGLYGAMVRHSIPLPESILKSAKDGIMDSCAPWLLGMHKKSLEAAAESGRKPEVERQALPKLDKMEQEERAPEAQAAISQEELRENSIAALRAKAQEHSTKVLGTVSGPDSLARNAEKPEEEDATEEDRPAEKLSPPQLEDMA
UniProt P58304: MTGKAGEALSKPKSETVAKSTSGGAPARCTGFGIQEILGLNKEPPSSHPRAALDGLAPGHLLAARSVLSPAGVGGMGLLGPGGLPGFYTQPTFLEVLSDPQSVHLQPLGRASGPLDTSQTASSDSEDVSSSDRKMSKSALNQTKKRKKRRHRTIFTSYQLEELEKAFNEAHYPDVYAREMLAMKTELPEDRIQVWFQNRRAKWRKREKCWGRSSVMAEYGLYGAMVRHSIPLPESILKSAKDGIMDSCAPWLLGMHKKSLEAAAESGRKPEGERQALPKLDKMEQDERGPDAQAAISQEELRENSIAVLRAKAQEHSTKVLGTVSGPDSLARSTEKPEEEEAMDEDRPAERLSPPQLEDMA
UniProt P48432: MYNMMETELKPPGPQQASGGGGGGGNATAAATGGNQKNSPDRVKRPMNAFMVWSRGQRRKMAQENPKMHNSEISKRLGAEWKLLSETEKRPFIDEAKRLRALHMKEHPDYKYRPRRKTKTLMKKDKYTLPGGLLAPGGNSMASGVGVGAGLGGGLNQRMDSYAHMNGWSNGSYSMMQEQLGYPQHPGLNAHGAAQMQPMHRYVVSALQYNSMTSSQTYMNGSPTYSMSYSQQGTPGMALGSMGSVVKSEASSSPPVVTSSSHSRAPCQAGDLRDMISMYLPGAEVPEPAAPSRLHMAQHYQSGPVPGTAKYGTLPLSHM
UniProt P48431: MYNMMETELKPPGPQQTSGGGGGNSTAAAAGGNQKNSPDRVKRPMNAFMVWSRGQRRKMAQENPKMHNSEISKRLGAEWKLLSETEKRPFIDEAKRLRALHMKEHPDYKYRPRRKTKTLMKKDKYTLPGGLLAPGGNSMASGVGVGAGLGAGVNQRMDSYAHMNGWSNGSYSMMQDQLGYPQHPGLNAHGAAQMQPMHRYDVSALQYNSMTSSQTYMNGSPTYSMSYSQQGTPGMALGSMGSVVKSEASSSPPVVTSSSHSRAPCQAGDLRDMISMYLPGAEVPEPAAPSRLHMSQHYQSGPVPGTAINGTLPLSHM

Tests used:
[1] = target: VSX2 (endogenous, mouse P0 retina) (mouse (endogenous in C57BL/6J P0 retinae)) (UniProt Q61412); experiment: co-IP; endogenous, reciprocal IPs; native lysates of C57BL/6J P0 retinae in co-IP buffer (PBS, 10% glycerol, 0.6% Triton X-100); specific antibodies or control IgG overnight at 4°C; protein G magnetic beads; western blot
VSX2 (human) = VSX2 (human) (UniProt P58304); experiment: co-IP; lysates of HEK-293T cells co-expressing VSX2 and SOX2; lysis in 300 mM NaCl, 1% NP-40 buffer diluted with an equal volume of no-salt buffer; 500 ug protein with primary antibody overnight at 4°C; protein G magnetic beads; washes in 150 mM NaCl buffer; western blot

| binding [1] | binding (VSX2 (human)) | Substance |
| --- | --- | --- |
| binds | – | SOX2 (endogenous, mouse P0 retina) (from UniProt P48432 1-319) |
| – | binds | SOX2 (from UniProt P48431 1-317) |
